From US20100191019A1, “Organic Compounds” (priority 2007, published 2010)

Experiment: Odour description of the neat compound
Conditions: not given
In the case of “(5E,7E,9E)-undeca-5,7,9-trien-4-ol and (5E,7E,9Z)-undeca-5,7,9-trien-4-ol [Example 4]”, the Odour description is reported as “fruity, fatty, floral”.
In the case of C=C/C=C/C=C/C(=O)CCCC [Example 1, (6E,8E)-undeca-6,8,10-trien-5-one], the Odour description is reported as “floral, green, metallic”.
For C=C/C=C/C=C/CCC(O)CC (centres unmarked) [Example 7, (6E,8E)-undeca-6,8,10-trien-3-ol], the Odour description was “green, Undecatriene-like, floral, fruity, woody, leather”.
With C=C/C=C/C=C/C(O)CCCC (centres unmarked) [Example 2, (6E,8E)-undeca-6,8,10-trien-5-ol] the Odour description was “green, floral, metallic”.
In the case of C=CCC(O)/C=C/C=C/CCCC (centres unmarked) [Example 10, (5E,7E)-dodeca-1,5,7-trien-4-ol], the Odour description is reported as “fatty, fruity, floral, animalic, green, allylic”.
With CC=CC(O)/C=C/C=C/CCCC (centres unmarked) [Example 9, (5E,7E)-dodeca-2,5,7-trien-4-ol] the Odour description was “fruity, fatty, floral, allylic, metallic”.
With “(5E,7E,9E)-undeca-5,7,9-trien-4-one and (5E,7E,9Z)-undeca-5,7,9-trien-4-one [Example 3]” the Odour description was “citrus, fresh, aldehydic, allylic, metallic, fruity”.
In the case of C=CC(O)/C=C/C=C/CCCC (centres unmarked) [Example 8, (4E,6E)-undeca-1,4,6-trien-3-ol], the Odour description is reported as “green, fruity, smoked, ethery”.
With C=C/C=C/C=C/CCCC(C)O (centres unmarked) [Example 6, (6E,8E)-undeca-6,8,10-trien-2-ol] the Odour description was “Undecatriene-like, fatty, green, fruity, metallic”.

Same assay, conditions: dry down notes
With “(6Z,8E)-undeca-6,8,10-trien-5-ol and (6E,8E)-undeca-6,8,10-trien-5-ol [Example 5]” the “Odour description: Dry down notes” value was “more Galbanone-like than Undecatriene-like, Cetone V aspect”.

Same assay, conditions: top notes
With “(6Z,8E)-undeca-6,8,10-trien-5-ol and (6E,8E)-undeca-6,8,10-trien-5-ol [Example 5]” the “Odour description: Top notes” value was “green, violet, pineapple, Undecavertol, Folione”.
